This is an account of results in PubChem BioAssay AID330 (DTP/NCI, 2004).

Structures are written as SMILES. The list is a part of this screen's results and no random one: it is rich in T/C values a quarter to a half above the control, in often repeated tests (any T/C) and in doses without a T/C. Further doses and runs are listed elsewhere. T/C is the treated group as % of the vehicle group. Some doses have a count of surviving animals in place of a T/C: the source holds a T/C of zero for them, seemingly a mark for toxic or unscored doses. Some doses without a T/C left all or most animals alive at the check, yet need not have been tolerated: survival well below the control is almost never listed, so the zero probably covers shortened survival too. Survivors were counted at the toxicity check, usually on the fifth day, unless a day is given; later deaths do not show. Schedule codes are those of the source, taken here to give the interval after Q, in days (D) or hours (H), and the number of doses after X. Some entries hold several experiments; the results are listed from low to high. Where survival is the endpoint, the PubChem record calls one and a half times the control and up active, and a quarter to a half above the control has no call in these data; cut-offs in other NCI protocols can differ. Some T/C values are followed by the survivors on the day toxicity was checked, most often the fifth; without a count, all were alive then.

The test system of this experiment is P388 leukemia ip, CD2F1 mice, survival T/C. The experiment can be described thus: NCI In Vivo Anticancer Drug Screen. Data for tumor model P388 Leukemia (intraperitoneal) in CD2F1 (CDF1) mice. The conditions noted are these: T/C endpoint: median survival time, higher T/C = longer survival.
Where [1] appears, read: dose: 120.0 mg/kg/injection, schedule: Q01DX005 (ip), vehicle: Klucel (hydroxypropylcellulose) (HPC).
Setting [2] is: dose: 240.0 mg/kg/injection, schedule: Q01DX005 (ip), vehicle: Klucel (hydroxypropylcellulose) (HPC).
Setting [3] is: dose: 120.0 mg/kg/injection, schedule: Q01DX005 (ip), vehicle: saline with Tween-80.
Where [4] appears, read: dose: 200.0 mg/kg/injection, schedule: Q01DX005 (ip), vehicle: Klucel (hydroxypropylcellulose) (HPC).
The mark [5] stands for this setting: dose: 100.0 mg/kg/injection, schedule: Q01DX005 (ip), vehicle: saline with Tween-80.
The mark [6] stands for this setting: dose: 200.0 mg/kg/injection, schedule: Q01DX005 (ip), vehicle: saline with Tween-80.
The mark [7] stands for this setting: dose: 50.0 mg/kg/injection, schedule: Q01DX009 (ip), vehicle: saline with Tween-80.
Setting [8] is: dose: 100.0 mg/kg/injection, schedule: Q01DX009 (ip), vehicle: saline with Tween-80.
[9] abbreviates: dose: 200.0 mg/kg/injection, schedule: Q01DX009 (ip), vehicle: saline with Tween-80.
[10] abbreviates: dose: 50.0 mg/kg/injection, schedule: Q01DX005 (ip), vehicle: saline with Tween-80.

Regarding `Cc1ccc(C2OC(=O)C(=O)C2=O)cc1` (stereo not given), the survivor count was 4 of 6 (dose: 15.0 mg/kg/injection, schedule: Q01DX005 (ip), vehicle: Klucel + Tween-80); 0 of 6 (dose: 30.0 mg/kg/injection, schedule: Q01DX005 (ip), vehicle: Klucel + Tween-80); 0 of 6 (dose: 60.0 mg/kg/injection, schedule: Q01DX005 (ip), vehicle: Klucel + Tween-80); 0 of 6 (dose: 120.0 mg/kg/injection, schedule: Q01DX005 (ip), vehicle: Klucel + Tween-80); 0 of 6 (dose: 240.0 mg/kg/injection, schedule: Q01DX005 (ip), vehicle: Klucel + Tween-80).

On to `O=C1NC(=O)C2=C1CCC2`, for which the survivor count is 3 of 6 (dose: 25.0 mg/kg/injection, schedule: Q01DX009 (ip), vehicle: distilled water + Tween-80); 0 of 6 (dose: 50.0 mg/kg/injection, schedule: Q01DX009 (ip), vehicle: distilled water + Tween-80); 0 of 6 (dose: 100.0 mg/kg/injection, schedule: Q01DX009 (ip), vehicle: distilled water + Tween-80).

On to `CCOC(=O)/C=C1\SC(C)(C)C1NC(=O)OCc1ccccc1` (stereo not given), for which the survivor count is listed as 5 of 6 under setting [1] and 5 of 6 under setting [2].

Consider `C[Si](C)(C[P+](=O)[O][Sn]([CH3])([CH3])[O][P+](=O)C[Si](C)(C)c1ccccc1)c1ccccc1` (stereo not given), for which the survivor count by setting is: (dose: 15.0 mg/kg/injection, schedule: Q01DX005 (ip), vehicle: saline with Tween-80) 0 of 6; (dose: 60.0 mg/kg/injection, schedule: Q01DX005 (ip), vehicle: saline with Tween-80) 5 of 6; under setting [3], 0 of 6; (dose: 240.0 mg/kg/injection, schedule: Q01DX005 (ip), vehicle: saline with Tween-80) 0 of 6.

Regarding `CCc1nc(N)nc(N)c1-c1ccc(NCCCN)c(N)c1`, the survivor count (dose: 100.0 mg/kg/injection, schedule: Q01DX005 (ip), vehicle: Klucel (hydroxypropylcellulose) (HPC)) was 2 of 6 and the survivor count under setting [4] is 0 of 6.

Consider `CC1=CCCN(C)C1c1ccccc1` (stereo not given), for which the survivor count (dose: 200.0 mg/kg/injection, schedule: Q01DX005 (ip), vehicle: saline) is reported as 0 of 5.

Regarding `COc1ccc(CC2C(=O)OC(C)C(NC(=O)C(CC(C)C)N(C)C(=O)C3CCCN3C(=O)C(C)O)C(=O)NC(C(C)C)C(O)CC(=O)OC(C(C)C)C(=O)C(C)C(=O)NC(CC(C)C)C(=O)N3CCCC3C(=O)N2C)cc1` (stereo not given), the T/C was 128 and 131 % of control (dose: 75.0 micrograms/kg/injection, schedule: Q01DX005 (ip), vehicle: distilled water + alcohol); 131 and 141 % of control (dose: 125.0 micrograms/kg/injection, schedule: Q01DX005 (ip), vehicle: distilled water + alcohol); 148 % of control (dose: 250.0 micrograms/kg/injection, schedule: Q01DX005 (ip), vehicle: distilled water + alcohol). In addition, the survivor count by setting is: (dose: 500.0 micrograms/kg/injection, schedule: Q01DX005 (ip), vehicle: distilled water + alcohol) 5 of 6; (dose: 1000.0 micrograms/kg/injection, schedule: Q01DX005 (ip), vehicle: distilled water + alcohol) 1 of 6.

Regarding `CN(C)C1CC/C=C/CC/C=C/CC[C@H]1O` (mixture of isomers), the survivor count runs as follows: under setting [5], 2 of 5; under setting [6], 0 of 5.

Consider `CC1(C)C=Cc2c(ccc3c(=O)c(-c4ccc5c(c4)OCO5)coc23)O1`, for which the survivor count runs as follows: (dose: 200.0 mg/kg/injection, schedule: Q04DX002 (ip), vehicle: saline with Tween-80) 6 of 6; (dose: 400.0 mg/kg/injection, schedule: Q04DX002 (ip), vehicle: saline with Tween-80) 6 of 6.

With `CSC(C=P(c1ccccc1)(c1ccccc1)c1ccccc1)=Nc1ccccc1`, the survivor count runs as follows: under setting [7], 1 of 6; under setting [8], 0 of 6.

For `CC(=O)Nc1c(Cl)c(Cl)c2c(c1Cl)Cc1cc(Br)ccc1-2`, the survivor count runs as follows: (dose: 200.0 mg/kg/injection, schedule: Q04DX003 (ip), vehicle: saline with Tween-80) 5 of 6; (dose: 400.0 mg/kg/injection, schedule: Q04DX003 (ip), vehicle: saline with Tween-80) 5 of 6.

With `CN1C(=O)NC(C)(c2cccc(N(CCCl)CCCl)c2)C1=O` (stereo not given), the T/C (dose: 50.0 mg/kg/injection, schedule: Q01DX009 (ip), vehicle: Klucel (hydroxypropylcellulose) (HPC)) was 131 % of control.

On to `CC(C)OC(=S)S.[Pb]`, for which the T/C runs as follows: (dose: 16.5 mg/kg/injection, schedule: Q01DX009 (ip), vehicle: saline with Tween-80) 147 % of control; (dose: 25.0 mg/kg/injection, schedule: Q01DX009 (ip), vehicle: saline with Tween-80) 133 and 146 % of control [5 of 6 alive]; (dose: 37.5 mg/kg/injection, schedule: Q01DX009 (ip), vehicle: saline with Tween-80) 128 % of control [5 of 6 alive]. Besides, the survivor count is given as 3 of 6 under setting [7], 0 of 6 under setting [8] and 4 of 6 under setting [9].

With `CCCCN=NN(C)CCCC`, the T/C under setting [10] was 134 and 144 % of control. Further, the survivor count by setting is: under setting [5], 4 of 5 and 5 of 6; under setting [6], 2 of 6.

On to `C#CCOC1CC(C)(O)Cc2cc3c(c(O)c21)C(=O)c1c(O)cc2c(c1C3=O)OC1OC2(C)C(O)C(N(C)C)C1O` (stereo not given), for which the T/C is 130 % of control (dose: 2.5 mg/kg/injection, schedule: Q01DX009 (ip), vehicle: other); 137 % of control (dose: 5.0 mg/kg/injection, schedule: Q01DX009 (ip), vehicle: other); 140 % of control (dose: 10.0 mg/kg/injection, schedule: Q01DX009 (ip), vehicle: other). The survivor count (dose: 40.0 mg/kg/injection, schedule: Q01DX009 (ip), vehicle: other) was 3 of 6.

For `[N-]=[N+]=NC(=O)Nc1ccccc1F`, the survivor count by setting is: (dose: 15.0 mg/kg/injection, schedule: Q01DX005 (ip), vehicle: Klucel (hydroxypropylcellulose) (HPC)) 1 of 6; (dose: 30.0 mg/kg/injection, schedule: Q01DX005 (ip), vehicle: Klucel (hydroxypropylcellulose) (HPC)) 0 of 6; (dose: 60.0 mg/kg/injection, schedule: Q01DX005 (ip), vehicle: Klucel (hydroxypropylcellulose) (HPC)) 0 of 6; under setting [1], 0 of 6; under setting [2], 0 of 6.

On to `O=NN(C(=O)NCCCl)c1[nH]c(=O)ncc1Cl`, for which the survivor count under setting [4] is recorded as 0 of 6.

As to `CC(=O)Nc1[c-]cccc1.CC(=O)Nc1[c-]cccc1.CC(=O)O.CC(=O)O.[Pd].[Pd]`, the T/C under setting [10] was 128 % of control. For the same compound, the survivor count runs as follows: under setting [5], 0 of 6; under setting [6], 0 of 6.

As to `NC(N)=NC(N)=Nc1c(F)c(F)c(F)c(F)c1F`, where the note is “dose: 12.5 mg/kg/injection, schedule: Q01DX009 (ip), vehicle: saline with Tween-80”, the T/C is 125 % of control. The survivor count is, setting by setting: under setting [8], 0 of 6; under setting [9], 0 of 6.

As to `CC1CC(C(=O)c2ccoc2)C(=O)O1` (stereo not given), the survivor count runs as follows: under setting [5], 2 of 6; under setting [6], 0 of 6.

Consider `CC1=C2C(=O)[C@H]3[C@@H](CC=C4C[C@@H](O)CC[C@@]43C)[C@@H]2CC[C@]12O[C@@H]1C[C@H](C)CN[C@H]1[C@H]2C`, for which the survivor count under setting [9] is recorded as 6 of 6.

`O=c1[nH]c2cc(Cl)ccc2nc1/C=C(\O)c1ccccc1O`: the survivor count under setting [3] is 6 of 6.
